Reference: US20230330254A1 (Regeneron Pharmaceuticals, Inc., priority 2022, published 2023)

Test: general procedure: Fmoc solid-phase peptide synthesis; Rink amide MBHA resin (loading: 0.5-0.6 mmol/g); HATU/DIPEA
[1] = late stage modification step, analytical HPLC, 220 nm, PDA detector
[2] = whole synthesis, analytical HPLC, 220 nm, PDA detector

Substance: (S)-1-(9H-fluoren-9-yl)-3,6,9,12,15-pentaoxo-5-((((2R,3R,4S,5R,6R)-3,4,5-triacetoxy-6-(acetoxymethyl)tetrahydro-2H-pyran-2-yl)oxy)methyl)-2-oxa-4,7,10,13,16-pentaazaoctadecan-18-oic acid
- step yield (late stage modification step): 59.81% yield
- crude purity (method not given) [1]: 95% purity

Substance: benzyl 2-(2-(2-(2-aminoacetamido)acetamido)acetamido)acetate hydrochloride
- step yield (late stage modification step): 69.77% yield
- crude purity (method not given) [1]: 70% purity

Substance: (3S,6S,9S,12S,15S,21S)-21-((2H-tetrazol-5-yl)methyl)-3-(((S)-1-(((S)-1-amino-5-(3,5-dimethylphenyl)-1-oxopentan-2-yl)amino)-3-(4′-(4-azidobutoxy)-2′-ethyl-[1,1′-biphenyl]-4-yl)-1-oxopropan-2-yl)carbamoyl)-12-(2-fluorobenzyl)-9,15-bis((R)-1-hydroxyethyl)-6-(hydroxymethyl)-28-(1H-imidazol-5-yl)-12,24,24-trimethyl-5,8,11,14,17,20,23,26-octaoxo-4,7,10,13,16,19,22,25-octaazaoctacosan-1-oic acid
- isolated yield (whole synthesis): 2.63% yield
- final HPLC purity [2]: 98.48% purity
- final purity (method not given) [2]: 91% purity

Substance: COT- G4- (R)Ser-P9
- conjugation yield (conjugation step): 36.34%
- final purity (method not given) (conjugation step, analytical HPLC, 220 nm, PDA detector): 99.72%

Substance: benzyl 2,2-dimethyl-4,7,10,13-tetraoxo-3-oxa-5,8,11,14-tetraazahexadecan-16-oate
- step yield (coupling step): 85.00% yield
- crude purity (method not given) (coupling step, analytical HPLC, 220 nm, PDA detector): 95% purity
